Measurements reported in PubChem BioAssay AID1259308 (NCATS, 2017)

- Purpose: 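Candidate targets for better recombinant protein yield in mammalian cells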 (primary screen)
- System: human HEK293 embryonic kidney cells stably expressing firefly luciferase (HEK-CMV-Luc2-Hygro)
- Reagent: single siRNA against human genes, 0.8 pmol siRNA per well
- Duration: 72 h
- Measured: 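Reporter luminescence and viable-cell signal on separate replicate plates, given as percent of non-targeting control and median/MAD z-scores, plus per-cell luciferase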
- Direction: total luciferase, z-score and total luciferase, % of control: higher = more reporter protein produced; luciferase per cell, z-score: higher = more reporter output per viable cell
- Hit rule: 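An siRNA counts as active if its total luciferase robust z-score exceeds 3; genes with two or more such siRNAs out of three were retested with fresh siRNAs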
- Meaning of the calls: active = raised luciferase; inactive = no rise
Here is an unselected part of about 59,000 reagents tested. In the full data, about 1,510 (2.6%) got an active call. 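Calls use total luciferase alone and ignore viability, so some active siRNAs may act by altering cell number.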 The numbers tell different reagents against one gene apart. Further read-outs or replicates are left out here.

The first 3 records, ahead of the listing:
Target gene	reagent	total luciferase, z-score	total luciferase, % of control	luciferase per cell, z-score	call
KRTAP9-9	1	0.394	89.7	0.831	inactive
KRTAP9-9	2	-0.286	76.2	0.565	inactive
KRTAP9-9	3	0.856	98.9	0.618	inactive

The list itself, repeating the preview:
Target gene	reagent	total luciferase, z-score	total luciferase, % of control	luciferase per cell, z-score	call
KRTAP9-9	1	0.394	89.7	0.831	inactive
KRTAP9-9	2	-0.286	76.2	0.565	inactive
KRTAP9-9	3	0.856	98.9	0.618	inactive
PEX2	1	0.714	96.1	1.11	inactive
PEX2	2	0.184	85.5	0.68	inactive
PEX2	3	-0.646	69	0.396	inactive
TLK2	1	2.83	138	2.49	inactive
TLK2	2	-0.196	78	-0.113	inactive
TLK2	3	2.61	134	1.93	inactive
SCRN1	1	-1.27	56.6	0.0978	inactive
SCRN1	2	4.19	165	3.01	active
SCRN1	3	0.914	100	0.262	inactive
CAPN11	1	-0.132	79.3	-0.348	inactive
CAPN11	2	-0.241	77.1	0.228	inactive
CAPN11	3	-1.31	55.8	0.793	inactive
OR5H6	1	-0.282	76.3	-0.238	inactive
OR5H6	2	0.833	98.5	1.2	inactive
OR5H6	3	-0.396	74	-0.608	inactive
TRNAU1AP	1	0.0404	82.7	-0.453	inactive
TRNAU1AP	2	0.212	86.1	-0.247	inactive
TRNAU1AP	3	-1.33	55.5	-1.29	inactive
GABRG3	1	-0.0155	81.6	-0.148	inactive
GABRG3	2	0.829	98.4	0.0874	inactive
GABRG3	3	1.58	113	1.22	inactive
TMEM38A	1	0.512	92.1	0.824	inactive
TMEM38A	2	-0.799	66	-0.488	inactive
TMEM38A	3	0.364	89.1	0.223	inactive
SPATS2L	1	-1.28	56.4	-2.02	inactive
SPATS2L	2	3.33	148	2.56	active
SPATS2L	3	-0.753	66.9	-1.09	inactive
SLA	1	1.8	118	1.62	inactive
SLA	2	0.338	88.6	0.475	inactive
SLA	3	3.53	152	1.86	active
ANGPTL2	1	1.88	119	1.46	inactive
ANGPTL2	2	0.224	86.3	-0.303	inactive
ANGPTL2	3	-0.365	74.6	-0.24	inactive
MAP2K2	1	-1.51	51.9	-0.967	inactive
MAP2K2	2	0.881	99.4	1.82	inactive
MAP2K2	3	-1.45	53	-1.51	inactive
